Measured values taken from the supplement of paper PMC10849652.
The other results are listed elsewhere or left out.

The chains behind the UniProt entries cited, without tags or fusion partners. Where a name states a change or a piece, a line headed by the entry shows the natural chain unless it says otherwise.
UniProt Q9Y244: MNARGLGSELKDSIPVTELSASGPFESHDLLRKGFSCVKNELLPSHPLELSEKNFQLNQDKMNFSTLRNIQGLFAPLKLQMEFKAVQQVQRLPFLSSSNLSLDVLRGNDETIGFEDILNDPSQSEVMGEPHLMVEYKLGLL
UniProt O94903: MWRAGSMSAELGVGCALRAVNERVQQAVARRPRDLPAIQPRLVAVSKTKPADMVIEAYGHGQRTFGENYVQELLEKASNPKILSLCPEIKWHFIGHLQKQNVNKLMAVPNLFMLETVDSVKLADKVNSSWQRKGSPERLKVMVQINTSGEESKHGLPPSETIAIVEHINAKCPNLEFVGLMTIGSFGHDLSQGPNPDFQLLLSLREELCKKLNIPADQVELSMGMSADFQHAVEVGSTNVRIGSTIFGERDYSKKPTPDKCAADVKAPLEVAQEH
UniProt P51805: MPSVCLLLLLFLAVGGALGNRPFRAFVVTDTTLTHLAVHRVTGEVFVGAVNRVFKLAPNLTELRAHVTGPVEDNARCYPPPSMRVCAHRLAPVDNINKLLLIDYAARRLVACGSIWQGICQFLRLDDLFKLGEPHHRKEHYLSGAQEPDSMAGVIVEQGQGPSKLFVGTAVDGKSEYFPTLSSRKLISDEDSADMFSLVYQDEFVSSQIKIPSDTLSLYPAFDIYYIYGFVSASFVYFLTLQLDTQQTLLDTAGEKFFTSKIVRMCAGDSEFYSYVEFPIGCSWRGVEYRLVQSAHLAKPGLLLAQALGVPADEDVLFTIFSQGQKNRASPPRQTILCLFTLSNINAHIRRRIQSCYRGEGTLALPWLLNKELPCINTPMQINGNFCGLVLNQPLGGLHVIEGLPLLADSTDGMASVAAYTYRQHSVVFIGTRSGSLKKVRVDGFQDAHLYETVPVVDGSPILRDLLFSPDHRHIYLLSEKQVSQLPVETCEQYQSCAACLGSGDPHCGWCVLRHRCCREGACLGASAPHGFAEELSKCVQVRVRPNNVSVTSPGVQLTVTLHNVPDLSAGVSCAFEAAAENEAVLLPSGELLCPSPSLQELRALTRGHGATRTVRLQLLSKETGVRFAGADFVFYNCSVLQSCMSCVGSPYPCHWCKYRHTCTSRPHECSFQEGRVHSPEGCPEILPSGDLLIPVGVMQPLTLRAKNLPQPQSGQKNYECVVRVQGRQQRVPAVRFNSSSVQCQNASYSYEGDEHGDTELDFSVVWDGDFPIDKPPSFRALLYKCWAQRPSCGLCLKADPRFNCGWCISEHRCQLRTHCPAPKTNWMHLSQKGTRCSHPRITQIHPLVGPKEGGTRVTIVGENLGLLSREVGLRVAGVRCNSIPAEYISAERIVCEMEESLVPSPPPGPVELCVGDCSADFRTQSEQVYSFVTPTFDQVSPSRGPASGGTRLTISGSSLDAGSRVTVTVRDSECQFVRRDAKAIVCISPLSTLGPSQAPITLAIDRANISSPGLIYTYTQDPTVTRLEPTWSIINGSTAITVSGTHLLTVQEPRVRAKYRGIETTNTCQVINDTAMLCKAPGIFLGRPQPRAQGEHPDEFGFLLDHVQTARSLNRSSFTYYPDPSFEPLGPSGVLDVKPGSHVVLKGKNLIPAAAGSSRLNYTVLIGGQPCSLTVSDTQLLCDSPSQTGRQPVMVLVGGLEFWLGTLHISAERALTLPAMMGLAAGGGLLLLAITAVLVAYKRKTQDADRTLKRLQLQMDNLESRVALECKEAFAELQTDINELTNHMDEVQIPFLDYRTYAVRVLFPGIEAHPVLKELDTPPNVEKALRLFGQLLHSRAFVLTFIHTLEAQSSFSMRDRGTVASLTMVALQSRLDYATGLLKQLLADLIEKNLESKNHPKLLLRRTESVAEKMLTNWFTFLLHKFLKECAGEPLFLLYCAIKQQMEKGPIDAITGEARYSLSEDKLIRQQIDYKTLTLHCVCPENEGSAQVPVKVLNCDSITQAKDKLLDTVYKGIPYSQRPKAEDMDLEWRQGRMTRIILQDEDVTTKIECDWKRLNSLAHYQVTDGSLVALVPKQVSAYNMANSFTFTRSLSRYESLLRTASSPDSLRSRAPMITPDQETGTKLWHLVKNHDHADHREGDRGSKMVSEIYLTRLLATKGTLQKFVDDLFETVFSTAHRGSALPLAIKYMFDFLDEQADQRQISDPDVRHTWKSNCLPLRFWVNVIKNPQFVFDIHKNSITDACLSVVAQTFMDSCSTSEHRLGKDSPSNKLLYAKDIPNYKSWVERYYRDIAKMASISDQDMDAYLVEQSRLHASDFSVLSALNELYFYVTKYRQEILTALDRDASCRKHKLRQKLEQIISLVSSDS
UniProt O00411: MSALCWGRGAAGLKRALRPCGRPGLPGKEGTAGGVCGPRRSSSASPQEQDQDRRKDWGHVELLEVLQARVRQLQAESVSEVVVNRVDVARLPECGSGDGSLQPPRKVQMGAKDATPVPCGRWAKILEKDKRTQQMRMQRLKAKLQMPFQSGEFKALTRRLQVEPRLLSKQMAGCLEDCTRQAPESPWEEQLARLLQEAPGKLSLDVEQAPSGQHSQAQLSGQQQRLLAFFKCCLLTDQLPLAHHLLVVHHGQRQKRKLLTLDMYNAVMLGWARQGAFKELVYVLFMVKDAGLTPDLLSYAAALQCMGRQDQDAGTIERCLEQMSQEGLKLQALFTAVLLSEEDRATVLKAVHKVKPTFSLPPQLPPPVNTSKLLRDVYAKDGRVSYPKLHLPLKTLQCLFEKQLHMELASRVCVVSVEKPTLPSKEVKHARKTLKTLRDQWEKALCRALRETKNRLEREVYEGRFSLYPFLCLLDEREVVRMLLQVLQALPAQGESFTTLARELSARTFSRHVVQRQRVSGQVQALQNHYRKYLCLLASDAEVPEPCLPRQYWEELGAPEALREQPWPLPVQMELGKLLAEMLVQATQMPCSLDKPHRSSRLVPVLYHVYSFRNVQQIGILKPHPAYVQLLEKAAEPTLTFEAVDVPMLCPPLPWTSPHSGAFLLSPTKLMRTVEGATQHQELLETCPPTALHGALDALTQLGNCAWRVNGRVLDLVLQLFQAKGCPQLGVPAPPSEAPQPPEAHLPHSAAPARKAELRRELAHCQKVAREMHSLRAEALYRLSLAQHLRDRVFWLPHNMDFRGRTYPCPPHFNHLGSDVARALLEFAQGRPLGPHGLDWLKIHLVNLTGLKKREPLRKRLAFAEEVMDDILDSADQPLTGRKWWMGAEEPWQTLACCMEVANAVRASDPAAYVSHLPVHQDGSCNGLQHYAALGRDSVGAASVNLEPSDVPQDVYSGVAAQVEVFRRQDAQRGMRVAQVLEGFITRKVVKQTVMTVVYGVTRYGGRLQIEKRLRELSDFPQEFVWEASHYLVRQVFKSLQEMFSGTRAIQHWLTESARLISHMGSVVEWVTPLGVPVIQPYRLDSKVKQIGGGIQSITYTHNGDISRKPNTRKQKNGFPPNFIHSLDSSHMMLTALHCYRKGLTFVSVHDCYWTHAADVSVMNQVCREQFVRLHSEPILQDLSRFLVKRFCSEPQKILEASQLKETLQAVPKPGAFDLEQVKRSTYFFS
UniProt P45877: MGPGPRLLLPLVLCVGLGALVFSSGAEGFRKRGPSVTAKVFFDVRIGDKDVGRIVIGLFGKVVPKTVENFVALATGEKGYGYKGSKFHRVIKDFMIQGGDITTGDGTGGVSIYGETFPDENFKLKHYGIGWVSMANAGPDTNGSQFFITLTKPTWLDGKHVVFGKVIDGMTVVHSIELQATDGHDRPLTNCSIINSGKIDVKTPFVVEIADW
UniProt Q8NAT1: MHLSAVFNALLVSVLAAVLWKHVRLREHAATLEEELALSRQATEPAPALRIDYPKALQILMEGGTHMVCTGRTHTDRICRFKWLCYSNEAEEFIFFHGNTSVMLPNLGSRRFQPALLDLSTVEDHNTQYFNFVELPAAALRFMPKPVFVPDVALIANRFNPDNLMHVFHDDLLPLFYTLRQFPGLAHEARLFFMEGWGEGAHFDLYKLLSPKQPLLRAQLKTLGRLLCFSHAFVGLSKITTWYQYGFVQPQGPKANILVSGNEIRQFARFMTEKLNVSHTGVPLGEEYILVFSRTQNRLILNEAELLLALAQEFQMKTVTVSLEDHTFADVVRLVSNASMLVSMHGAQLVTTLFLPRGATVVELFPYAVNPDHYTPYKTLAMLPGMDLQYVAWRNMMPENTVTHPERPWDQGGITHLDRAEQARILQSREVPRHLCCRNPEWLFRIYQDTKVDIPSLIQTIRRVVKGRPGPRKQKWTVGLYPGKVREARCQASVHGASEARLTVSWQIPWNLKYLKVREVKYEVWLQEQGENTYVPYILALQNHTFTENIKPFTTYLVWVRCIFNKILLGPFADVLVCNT

Assays:
Experiment in all cases: log2 fold change, soluble protein after heating vs DMSO (PISA); higher = thermal stabilisation; K562 cells, 10 uM, 30 min; active = over 0.2 and 3.5 SD of the protein, either way, in both replicates (recomputed)
[1] = compound: C1=CC=C(C=C1)[C@H](COC2=CC3=C(C=C2)NC(=O)N3)NC(=O)C4=CC=CN(C4=O)CC5=CC(=C(C=C5)F)F
Summary of the method: (§1)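 Soluble protein was quantified by TMTpro 16plex LC-MS/MS after channel sums were equalised. It was obtained as the supernatant after 21,000xg for 90 min from pooled aliquots of K562 cells (2×10^6 cells/mL, 10 μM compound, 30 min) heated for 3 min across 48°C-58°C and extracted in PBS with 0.5% NP-40 at 4°C. Thermal stability values are relative to control samples and come from duplicates. They are given as log2 fold changes.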

[2] = compound: CC1=C(SC2=C1C(=N[C@H](C3=NN=C(N32)C)CC(=O)N)C4=CC=C(C=C4)Cl)C
Summary of the method: as §1

[3] = compound: CC1=C2C(=CC=C1)N=C(N(C2=O)C3=CC=CC=C3C)CN4C=NC5=C(N=CN=C54)N
Summary of the method: as §1

[4] = compound: Cc1sc2c(c1C)C(c1ccc(Cl)cc1)=N[C@@H](CC(=O)OC(C)(C)C)c1nnc(C)n1-2
Summary of the method: as §1

[5] = compound: c1ccc([C@@H]2C[C@H]2NC2CCNCC2)cc1
Summary of the method: as §1

Measured: log2 fold change

POLR2F (UniProt P61218)
inactive: [1] 0.017 | [2] 0.011 | [3] 0.095 | [4] -0.024 | [5] -0.131

POMP (UniProt Q9Y244)
inactive: [1] -0.101 | [2] -0.077 | [3] -0.069 | [4] -0.018 | [5] -0.009

POLR2A (UniProt P24928)
inactive: [1] -0.014 | [2] 0.158 | [3] 0.031 | [4] 0.17 | [5] -0.059

POLR2G (UniProt P62487)
inactive: [1] 0.082 | [2] 0.176 | [3] 0.001 | [4] 0.167 | [5] -0.016

PLPBP (UniProt O94903)
inactive: [1] -0.093 | [2] 0.048 | [3] 0.066 | [4] -0.039 | [5] 0.017

POLR2H (UniProt P52434)
inactive: [1] -0.005 | [2] 0.04 | [3] 0.107 | [4] 0.006 | [5] -0.068

PLXNA3 (UniProt P51805)
inactive: [1] 0.181 | [4] 0.038

POLRMT (UniProt O00411)
inactive: [3] -0.144

PPIC (UniProt P45877)
inactive: [1] 0.141 | [2] 0.018 | [5] -0.041

POMGNT2 (UniProt Q8NAT1)
inactive: [1] -0.132 | [2] -0.097 | [3] -0.05 | [5] 0.141

Two successive records from above, for reference:
POLR2H (UniProt P52434)
inactive: [1] -0.005 | [2] 0.04 | [3] 0.107 | [4] 0.006 | [5] -0.068

PLXNA3 (UniProt P51805)
inactive: [1] 0.181 | [4] 0.038
